For at least one entry, the source does not settle the construct or the ends of the probe.
These sequences were tested on MUC1 peptide (immobilised MUC1 selection target) (assay: SELEX). Settings: 10 rounds affinity column selection, wash 0.2 M NaHCO3 0.5 M NaCl pH 8.3, eluted 3 M NaSCN; single-stranded DNA.
With “GGGAGACAAGAATAAACGCTCAATGTTGGTCAGGCGGCGGCTCTACATTTCGACAGGAGGCTCACAACAGGC [Aptamer 4]” the selection result was “selected”. In the case of “GGGAGACAAGAATAAACGCTCAAGCAACAGGGTATCCAAAGGATCAAATTCGACAGGAGGCTCACAACAGGC [Aptamer 2]”, the selection result is reported as “selected”. “GGGAGACAAGAATAAACGCTCAAGTTCGACAGGAGGCTCACAACAGGCTTCGACAGGAGGCTCACAACAGGC [Aptamer 3]” was tested, and the selection result was “selected”. “GGGAGACAAGAATAAACGCTCAACGAATGGGCCCGTCCTCGCTGTAAGTTCGACAGGAGGCTCACAACAGGC [Aptamer 1]” was tested, and the selection result was “selected”.

Same assay, conditions: 10 rounds affinity column selection; found as clones A and C; single-stranded DNA
“GGGAGACAAGAATAAACGCTCAACCCTCTGTTCTTATTTGCGAGTTCATTCGACAGGAGGCTCACAACAGGC [Aptamer A (identical to C)]” was tested, and the selection result was “selected”.

Same assay, conditions: 10 rounds affinity column selection; printed 5' primer region has an extra A; single-stranded DNA
“GGGAGACAAGAATAAAACGCTCAAGCAGTTGATCCTTTGGATACCCTGGTTCGACAGGAGGCTCACAACAGGC [Aptamer F]” was tested, and the selection result was “selected”.

Same assay, conditions: 10 rounds affinity column selection; single-stranded DNA
“GGGAGACAAGAATAAACGCTCAAGTGGCTTACTGCGAGGACGGGCCCATTCGACAGGAGGCTCACAACAGGC [Aptamer E]” was tested, and the selection result was “selected”. “GGGAGACAAGAATAAACGCTCAACTCTGTTCTTATTTGCGAGTTGGTGTTCGACAGGAGGCTCACAACAGGC [Aptamer B]” was tested, and the selection result was “selected”. “GGGAGACAAGAATAAACGCTCAAAACCCTATCCACTTTTCGGCTCGGGTTCGACAGGAGGCTCACAACAGGC [Aptamer G]” was tested, and the selection result was “selected”. With “GGGAGACAAGAATAAACGCTCAATAAGAACAGGGCGTCGTGTTACGAGTTCGACAGGAGGCTCACAACAGGC [Aptamer D]” the selection result was “selected”.

Same assay, conditions: affinity column selection; flanks not given; single-stranded DNA
In the case of AGAACGAAGCGTTCGACAGGAGGCT [Aptamer L], the selection result is reported as “selected”. For AGAAACACTTGGTATATCGCAGATA [Aptamer H], the selection result was “selected”. With CGACAGGAGGCTCACAACAGGCAAC [Aptamer K] the selection result was “selected”. For GGGAGACAAGAATAAACACTCAACG [Aptamer I], the selection result was “selected”. For CGATTTAGTCTCTGTCTCTAGGGGT [Aptamer J], the selection result was “selected”.

Reference: patent US20070160526
